Laboratory results as given in PubChem BioAssay AID504467 (National Center for Advancing Translational Sciences (NCATS), 2011).
About 7,700 (2.3%) of roughly 330,000 compounds were called active. Inconclusive results, whose numbers are uncertain, are shown with a selection of clear calls. Calls come from the whole dose curve; as a rule, active = well fitted inhibition curve with a large enough effect; inconclusive = small, poorly fitted or top-dose-only effect, or effect the other way; inactive = flat fitted curve, though single readings scatter. Potencies beside an inconclusive call are fits to weak or partial responses and may not hold up.

Test: qHTS screen for small molecules that inhibit ELG1-dependent DNA repair in human embryonic kidney (HEK293T) cells expressing luciferase-tagged ELG1; note: nearly all actives have a fitted effect of over 55% in size
Details: HEK293T ELG1-luciferase reporter, luminescence, 16 h, DNA damage induced by 5-fluorouridine; series mostly up to 46.1 µM
Summary of the method: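 HEK293T cells expressing luciferase-tagged ELG1 (2,000/well) received 5-Fluorouridine plus compound or DMSO for 16 hr at 37 °C. Luciferase was read by ONE-Glo luminescence after 30 min at room temperature.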
Potency is the fitted concentration of half-maximal effect.

| Compound | Potency |
| --- | --- |
| COC(=O)[C@H](C(C)C)N(Cc1ccccc1)S(=O)(=O)CCN1CCN(c2ccccc2)CC1 | inconclusive: 23.1 µM [inhibitor, partial curve] |
| O=C(CCN1C(=O)C2CC=CCC2C1=O)NC1CCCCC1 (stereo not given) | inconclusive: 14.6 µM [activator, single point] |
| CC1(C)Cc2ccccc2C(NNC(=O)c2ccccn2)=N1 | inconclusive: 4.61 µM [activator, single point] |
| O=C(N/C(=C/c1ccccc1)C(=O)N1CCCCC1)c1ccccc1 | inconclusive: 13 µM [activator, partial curve] |
| CCc1ccc2nc(SCC(=O)NCC3CCCO3)c(C#N)cc2c1 (stereo not given) | inconclusive: 29.1 µM [activator, single point] |
| CCN(C(=O)CSc1nc2n[nH]c(C)c2c(=N)n1-c1ccc(Cl)c(C)c1)c1cccc(C)c1 | inconclusive: 25.9 µM [inhibitor, single point] |
| CCC1=Nc2cc(C(=O)NCc3cccnc3)ccc2Sc2ccc(C)cc21 | inconclusive: 4.61 µM [inhibitor, single point] |
| COC(=O)C1CCN(C(=O)COC(=O)CNC(=O)c2ccc(Cl)cc2Cl)CC1 | inactive |
| COc1cc2oc(=O)c(Br)c(C)c2c(OC)c1OC | inconclusive: 25.9 µM [activator, single point] |
| CCc1nnc2c(N(C)S(=O)(=O)c3ccc(C)cc3)nc3ccccc3n12 | inactive |
| O=C(NC1=NCCS1)C1Cc2ccccc2CN1C(=O)c1ccccc1 (stereo not given) | inconclusive: 9.2 µM [activator, partial curve, poor fit] |
| Cc1ccc(-c2nnn(CC(=O)N3CCC(C)CC3)n2)o1 | inconclusive: 14.6 µM [activator, single point] |
| Cc1ccccc1CN(C)C(=O)[C@H](Cc1ccccc1)NC(=O)c1ccco1 | inconclusive: 29.1 µM [inhibitor, single point] |
| Nc1c(Cl)cc(C2=NCCn3nc4cc([N+](=O)[O-])ccc4c32)cc1Cl | inconclusive: 7.94 µM [inhibitor, partial curve, poor fit] |
| CC(C)c1ccc(Nc2nnc(SCC(=O)NCC3CCCO3)s2)cc1 (stereo not given) | inconclusive: 3.26 µM [activator, full curve] |
| O=C(COc1ccccc1)Nc1cccc(-c2cn3cccnc3n2)c1 | inconclusive: 23.1 µM [inhibitor, single point] |
| O=C(NCCSc1ccccc1)c1ccco1 | inconclusive: 9.2 µM [activator, partial curve] |
| O=C(O)c1ccc(N/N=C/C2=Cc3ccccc3OC2)cc1 | inconclusive: 8.2 µM [activator, partial curve] |
| COc1cc2c(cc1OC)C(Cc1ccc(O)c(Oc3ccc(C[C@H]4c5cc(OC)c(OC)cc5CCN4C)cc3)c1)N(C)CC2 (stereo not given in full) | inconclusive: 20.6 µM [inhibitor, partial curve, poor fit] |
| O=C(NC1CC1)c1cccc(S(=O)(=O)Nc2ccccc2F)c1 | inactive |
| CCN(CC(=O)Nc1ccc2c(c1)OCCO2)C(=O)/C=C/c1cccc(Br)c1 | inconclusive: 5.17 µM [activator, single point] |
| COc1ccccc1N1CCN(C(=O)c2cc(-c3ccccc3O)on2)CC1 | inactive |
| Cc1ccc(NC(=O)C2CCN(S(=O)(=O)c3ccc4c(c3)NC(=O)CO4)CC2)cc1C | inactive |
| Cn1c(=O)c2c(SCC(=O)c3ccccc3)nc(C3CC3)nc2n(C)c1=O | inconclusive: 7.31 µM [inhibitor, partial curve] |

3 compounds out of the list, arranged by molecular weight, low to high.

| Compound | Potency |
| --- | --- |
| O=C(O)c1ccc(N/N=C/C2=Cc3ccccc3OC2)cc1 | inconclusive: 8.2 µM [activator, partial curve] |
| O=C(NC1CC1)c1cccc(S(=O)(=O)Nc2ccccc2F)c1 | inactive |
| Cc1ccc(NC(=O)C2CCN(S(=O)(=O)c3ccc4c(c3)NC(=O)CO4)CC2)cc1C | inactive |

The list continues.

| Compound | Potency |
| --- | --- |
| Nc1nc(-c2ccccc2)nc2sc3c(c12)CCCC3 | inconclusive: 3.26 µM [activator, partial curve] |
| CCOc1ccc(C(=O)N(Cc2ccc(OC)cc2)Cc2cc3cc(OC)ccc3[nH]c2=O)cc1 | inactive |
| COc1ccc(Cn2c(=O)n(Cc3ccco3)c(=N)c3c4c(sc32)COC(C)(C)C4)cc1 | active: 7.31 µM |
| CS(=O)(=O)N(CC(=O)NCc1ccco1)c1ccc(Cl)c(C(F)(F)F)c1 | inconclusive: 32.6 µM [inhibitor, partial curve, poor fit] |
| Cc1ccsc1C1C(C#N)=C(N)Oc2n[nH]c(C)c21 (stereo not given) | inconclusive: 29.1 µM [activator, single point] |
| Cc1ccccc1Cn1ccc(-c2ccc3c(c2)OCO3)n1 | inconclusive: 20.6 µM [activator, single point] |
| Cc1cccc(OCC(=O)Nc2ccc3c(c2)nc(CCN2CCN(c4ccccn4)CC2)n3C)c1 | active: 14.6 µM |
| Cc1ccc(NC(=O)CN(CCc2ccccc2)S(C)(=O)=O)cc1 | inactive |
| CCN1C(=O)C(c2ccc(O)cc2)(c2ccc(O)cc2)c2ccccc21 | inactive |
| Cc1cc(C)cc(NC(=O)c2cccc3c2C(=O)N(C2CCCCC2)C3)c1 | inconclusive: 25.9 µM [activator, single point] |
| CC(=O)NCc1ccc(-c2csc(NC(=O)CCCc3nc4ccccc4c(=O)[nH]3)n2)cc1 | inactive |
| Cn1c(-c2ccc(F)cc2)cc2onc(-c3ccccc3Cl)c2c1=O | inconclusive: 2.51 µM [activator, partial curve] |
| O=C(OCn1ncc(Br)c(Br)c1=O)c1ccccc1Cl | inconclusive: 29.1 µM [inhibitor, single point] |
| CCCCN=C1NN=C(c2cccc([N+](=O)[O-])c2)CS1 | inconclusive: 18.3 µM [activator, partial curve] |
| COc1ccc(/C=N/n2c(-c3ccccc3)n[nH]c2=S)cc1 | inactive |
| CC1CCc2c(sc(NC(=O)c3ccccc3C(=O)O)c2C#N)C1 (stereo not given) | inconclusive: 29.1 µM [activator, single point] |
| CC(=O)O[C@H]1C(=O)[C@@]2(C)[C@H]([C@H](OC(=O)c3ccccc3)[C@]3(O)C[C@H](OC(=O)[C@H](O)C(NC(=O)c4ccccc4)c4ccccc4)C(C)=C1C3(C)C)[C@]1(OC(C)=O)CO[C@@H]1C[C@@H]2O (stereo not given in full) | inconclusive: 0.0183 µM [inhibitor, full curve, poor fit] |
| N/C(=N\OC(=O)/C=C/c1ccccc1)c1cccnc1 | inconclusive: 20.6 µM [activator, partial curve] |
| CCNC(=S)NNC(=O)c1cc(C)nc2ccccc12 | inactive |
| COCCNc1nc(-c2cc3ccccc3o2)cs1 | inconclusive: 2.31 µM [activator, full curve] |
| Cc1ccc(C)c(NC(=S)NCc2cccn2C)c1 | inactive |
| COc1ccc2nc(NC(=O)C3CCN(C(=O)c4ccco4)CC3)sc2c1 | inconclusive: 5.17 µM [activator, partial curve] |
| S=c1[nH]nc(CSCCOc2ccccc2)o1 | inactive |
| COc1ccc(CCNC(=O)c2ccc3c(c2)N(Cc2ccc(F)cc2)CCS3)cc1OC | active: 25.9 µM |

| Compound | Potency |
| --- | --- |
| CCCc1nnc(NC(=O)c2cc3ccccc3oc2=O)s1 | inconclusive: 8.2 µM [activator, single point] |
| CC1(C)OC2CCN3C(C(O)COS3(=O)=O)C2O1 (stereo not given) | inactive |
| CS(=O)(=O)NN1C(=O)c2ccccc2NC1c1ccccc1O (stereo not given) | inactive |
| CCC1CCCCN1c1ccc([N+](=O)[O-])cc1/C=N/NC(=O)Cn1c2ccccc2c(=O)c2ccccc21 (stereo not given) | inactive |
| CCOC(=O)c1cc2c(s1)-c1ccccc1CC2 | inconclusive: 20.6 µM [activator, partial curve] |
| CC(C)(C)c1cc(C(=O)N/N=C/c2ccccn2)n[nH]1 | inconclusive: 1.64 µM [activator, partial curve, poor fit] |
| COCc1cc(=O)n2[nH]c(-c3cccs3)cc2n1 | inconclusive: 16.4 µM [activator, partial curve, poor fit] |
| Brc1ccc(-c2nnc3ccc(Nc4ccccc4)nn23)cc1 | inactive |
| O=C(O)CSc1cc(NS(=O)(=O)c2ccc(Cl)cc2)c2ccccc2c1O | inconclusive: 14.6 µM [inhibitor, single point] |
| O=C(Nc1cccnc1)c1cc(-c2ccc(Cl)c(Cl)c2)on1 | inactive |
| CCC(=O)Nc1cc(Cl)ccc1N1CCN(C(=O)CC)CC1 | inconclusive: 9.2 µM [inhibitor, partial curve, poor fit] |
| CC(=O)N=c1c(C#N)cc2c(=O)n3ccccc3nc2n1Cc1ccccc1 | inactive |
| CCN(Cc1ccc2c(c1)OCO2)C(=O)CSc1nc(C)nc2sc(C)c(C)c12 | active: 18.3 µM |
| CN(C)S(=O)(=O)c1ccc(C(=O)Nc2nc(-c3ccccc3)c(C(=O)c3ccccc3)s2)cc1 | inactive |
| Nc1c(N(Cc2ccco2)C(=O)c2ccc(Cl)cc2)c(=O)[nH]c(=O)n1Cc1ccccc1 | inconclusive: 12.6 µM [activator, single point] |
| Cc1ccc(S(=O)(=O)Nc2cccc(-c3ccc(N4CCCCCC4)nn3)c2)cc1 | inconclusive: 2.59 µM [activator, full curve] |
| CC(=O)Nc1sc2c(c1-c1nc3ccccc3s1)CN(C(C)C)CC2 | inconclusive: 6.51 µM [activator, single point] |
| Cc1nc2ccccc2c(=O)n1Nc1cccc(Cl)c1 | inactive |
| NS(=O)(=O)c1ccc(CCNC(=O)C2CCN(S(=O)(=O)c3ccccc3)CC2)cc1 | inactive |
| O=C(Nc1ccncc1)OCc1ccccc1 | inactive |
| CCN(CC(=O)NC1CCS(=O)(=O)C1)c1ccc(S(=O)(=O)N(CC)CC)cc1[N+](=O)[O-] (stereo not given) | inconclusive: 16.4 µM [inhibitor, partial curve, poor fit] |
| O=C(CSCc1cnn(-c2ccccc2)c1-n1cccc1)NCC1CCCO1 (stereo not given) | inactive |
